Measurements reported in patent US8476230 (dated 2013).

Legend:
peptide made by a vendor = details: conjugation step, reverse phase HPLC
peptide synthesis = details: conjugation step, reverse phase HPLC

Substance: Arg12 Mutated DA Exendin-4(Lys27)-PEG-Immunoglobulin Fc Conjugate
- final HPLC purity (peptide made by a vendor): 99.2%

Substance: Ser12 Mutated DA Exendin-4(Lys27)-PEG-Immunoglobulin Fc Conjugate
- final HPLC purity (peptide synthesis): 92.5%
